Source: patent US20080171350A1, “Neural Cell Differentiation Method From Es Cells” (NOVARTIS FORSCHUNGSSTIFTUNG, ZWEIGNIEDERLASSUNG FRIEDRICH …, priority 2004, published 2008)
At least one compound was matched to its structure with a doubt left.

Test system: ES cells-derived neurons
Assay: Whole-cell patch-clamp recordings on ES cells-derived neurons
Type: cell-based, mouse
Settings: long-term neuronal cultures

`CN1CCc2cc3c(cc2[C@H]1[C@@H]1OC(=O)c2c1ccc1c2OCO1)OCO3` [bicuculline] was tested, and the “block of gabaergic input” value was “blocking”.
